No constants are given. Whether binding was seen depends on the method and setting. Binding calls can cover weak binding; strength is not graded here.
Key:
[1] = molecular target: native Amyloid beta in plaques on Tg2576 mouse brain sections; assay: in vitro immunohistochemistry on Tg2576 mouse brain sections
[2] = molecular target: native Amyloid beta in plaques on Tg2576 mouse brain sections; assay: in vitro immunohistochemistry on brain sections; diffuse and CAA plaques

B1: Abet0380-GL (germlined) IgG1-TM (antibody, V domains shown)
VH: EVQLLESGGGLVQPGGSLRLSCAASMGNFNYQTMWWVRQAPGKGLEWVSVIGKTNENIAYADSVKGRFTISRDNSKNTLYLQMNSLRAEDTAVYYCAREWMDHSRPYYYYGMDVWGQGTLVTVSS
VL: SYELTQPPSVSVSPGQTASITCSGHNLEDKFASWYQQKPGQSPVLVIYRDDKRPSGIPERFSASNSGHTATLTISGTQAMDEADYYCSSQDTVTRVFGGGTKLTVL
[1]
  binding: binds
[2]
  binding: binds

From patent publication US20190262327A1, “COMBINATION OF A BACE INHIBITOR AND AN ANTIBODY OR ANTIGEN-BINDING FRAGMENT FOR THE TREATMENT OF A DISORDER ASSOCIATED WITH THE ACCUMULATION OF AMYLOID BETA” (ASTRAZENECA AB, priority 2016, published 2019)
